Assay: Drug concentration in cochlear perilymph by LC-MS/MS
Format: in vivo, guinea pig
Excerpt: All animal experiments were approved by the Chungnam National University Committee of Animal Experiments (202006A-CNU-085). Ninety eight male albino guinea pigs, each weighing 200 to 250 g, were used in this study. To analyze the residual stability of the HGC thermogel after injection into the middle ear, twenty animals were used to perform micro-computed tomography (CT) and magnetic resonance imaging (MRI) at various injection time points (1, 3, 7, 14, and 21 days) and to perform histopathological analysis. Seventy two animals were used for perilymph sampling at various time points (30 minutes, 90 minutes, 3 hours, 1 day, 3 days, and 7 days) after middle ear injection of the HGC thermogel. Other six animals were used as normal controls for CT and T2-weighed MRI (N=4) and used for histopathological studies after intratympanic injection of saline on day 21 (N=2).
Before surgery, animals were anesthetized by intramuscular injection of alfaxan (15 mg/mL, Careside) and Rumpun (23 mg/mL, Careside). In addition, 0.5 ml of 1% lidocaine was injected subcutaneously into the postauricular area for local anesthesia. The anesthetized animals were placed in a prone position on a thermoregulated heated pad. After incising the retro auricular, the temporal bone was exposed and the round window membrane was visualized with a surgical microscope (Carl Zeiss OPMI f 170 Surgical Tilting Head connected to a Hitachi KP-D50 color digital microscope camera). Each of the HGC-DSP and HGC-DEX thermogel formulations (sample volume=100 μL, drug concentration=5 mg/mL (corresponding to 0.5 wt %)) was administered to the tympanic membrane using a 26 gauge needle. After injection, the needle was carefully removed, dental cement (Durelon™ Carboxylate Luting Cement, 3M) was applied to the area, and the skin incision was sutured. No animals were sacrificed in this series of experiments.
To assess the concentration of DEX in cochlear perilymph, perilymph sampling was performed at various time points (30 minutes, 90 minutes, 3 hours, 1 day, 3 days, and 7 days) after intratympanic injection of the DEX-loaded HGC thermogel. Under anesthesia, the temporal bone was removed, and the tympanic bulla was washed with 10 mL of saline. Small apical cochleostomy was performed using a sharp pick, and perilymph was collected in hand-held graduated glass capillary tubes (IntraMAPK micropipettes) marked at every 4 μl volume. Cochlear fluid and DEX standard samples were diluted 1:11 with artificial perilymph, and each mixture was diluted again 1:3 with 50% MeOH. All samples were analyzed using an operator system (QTRAP 6500) with a UHPLC/Tandem mass spectrometer (QTRAP 6500 Low Mass BL210251506) to measure the DEX concentration in the perilymph by LC-MS/MS. […]

initial DEX concentration in perilymph compared between groups (30 minutes after administration): highest initial concentration
DEX concentration in perilymph (90 minutes after administration): decreased
DEX concentration in perilymph (after 3 hours): not detected
Structure (SMILES): C[C@@H]1C[C@H]2[C@@H]3CCC4=CC(=O)C=C[C@]4(C)[C@@]3(F)[C@@H](O)C[C@]2(C)[C@@]1(O)C(=O)COP(=O)([O-])[O-].[Na+].[Na+] [DSP, DEX phosphate disodium salt]
DEX concentration in perilymph fluid (starting 30 minutes after intratympanic injection, drug 0.5 wt %): significant DEX concentrations were detected

— patent US20250135009A1, “INTRATYMPANIC DRUG CONTROLLED RELEASE-TYPE FORMULATION COMPRISING N-ACYLATED GLYCOL CHITOSAN” (The Industry & Academic Cooperation in Chungnam National …, priority 2021, published 2025)
